Earlier results as cited in patent publication US20180008592A1, “TREATMENT OF UREMIC PRURITUS” (TREVI THERAPEUTICS, INC., priority 2016, published 2018).
At least one compound was matched to its structure with a doubt left.

System: uremic pruritus
Conditions: equivalent of a 2.5 reduction on a 0-10 NRS scale; with more nights of sound sleep; cited from earlier work

In the case of `CN(C(=O)/C=C/c1ccoc1)[C@@H]1CC[C@@]2(O)[C@H]3Cc4ccc(O)c5c4[C@@]2(CCN3CC2CC2)[C@H]1O5` [nalfurafine], the “changes in VAS on a 100 mm scale” value is listed as 25 mm.
